The record followed here is the supplement of paper PMC10735217.

The experiment concerns HEK293A TEAD-LUC reporter. Put plainly: TEAD-luciferase reporter activity (YAP activation), robust Z score vs plate; higher = stronger YAP/TEAD activation. The conditions noted are these: 24 h. On the technique in general: In a reporter assay the amount or activity of a reporter protein is the signal.

Structures are written as SMILES. Where a name gives a salt, the structure may show the parent alone. The list shows a part of the results. Repeats in this data set agree poorly, so a single value says little.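 The human kidney-derived cells carry a stably integrated construct of eight TEAD-binding elements driving luciferase, read by luminescence in a drug-repurposing library screen. A compound counts as a hit when its signal is more than five robust Z scores above the plate mean.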

For `Cc1nc2c(N)nc3cccnc3c2n1CC(C)C`, the TEAD-luciferase reporter activity reads like this: (compound concentration: 200 nM) inactive: 1.03; (compound concentration: 2 uM) inactive: -1.56; (compound concentration: 10 uM) inactive: 1.22.
Regarding `O=c1nc(-c2ccccc2)c2cc(Cl)ccc2n1CC(F)(F)F` [fluquazone], the TEAD-luciferase reporter activity by setting is: (compound concentration: 200 nM) inactive: 1.63; (compound concentration: 2 uM) inactive: -2.26; (compound concentration: 10 uM) inactive: 3.49.
With `Cc1c(Cc2ccc3ccccc3n2)c2cc(F)ccc2n1CC(=O)O`, the TEAD-luciferase reporter activity reads like this: (compound concentration: 200 nM) inactive: -2.44; (compound concentration: 2 uM) inactive: -1.13; (compound concentration: 10 uM) inactive: 1.61.
For `O=C(O)CCc1ccc(CCN2CCCN(c3nc4ccccc4n3Cc3ccc(F)cc3)CCC2)cc1`, in that order: inactive: -0.222, inactive: -0.955 and inactive: 0.116.
On to `CCC(C)N1CCC2(CC1)N=C1C(=C3NC(=O)/C(C)=C\C=C/[C@H](C)[C@H](O)[C@@H](C)C(O)[C@@H](C)[C@H](O)[C@H](C)[C@@H](OC)/C=C\O[C@@]4(C)Oc5c(C)c(O)c(c1c5C4=O)C3=O)N2` (some centres undefined), for which the TEAD-luciferase reporter activity was inactive: -0.885 (compound concentration: 200 nM), inactive: 1.73 (compound concentration: 2 uM) and active: 5.63 (compound concentration: 10 uM).
In the case of `CNCCON=c1c2ccccc2ccc2ccccc12` [demexiptiline], the TEAD-luciferase reporter activity is, setting by setting: (compound concentration: 200 nM) inactive: -0.663; (compound concentration: 2 uM) inactive: 1.69; (compound concentration: 10 uM) inactive: -0.633.
As to `CCCN1CCCC12Cc1ccccc1CN(C(C)=O)C2` (centres undefined), the TEAD-luciferase reporter activity is inactive: -1.61 (compound concentration: 200 nM) and inactive: -1.61 (compound concentration: 10 uM).
In the case of `COc1ccc2c(c1OCc1ccccc1)C[C@@H](C(=O)O)N(C(=O)C(c1ccccc1)c1ccccc1)C2`, the TEAD-luciferase reporter activity reads like this: (compound concentration: 200 nM) inactive: 0.497; (compound concentration: 2 uM) inactive: -0.139; (compound concentration: 10 uM) inactive: -0.0928.
With `Nc1c(CC(=O)O)cccc1C(=O)c1ccc(Br)cc1` [bromfenac (low concentration), Bausch &amp_:_ Lomb-1], under “compound concentration: 2 uM”, the TEAD-luciferase reporter activity was inactive: -1.64.
`Nc1c(CC(=O)O)cccc1C(=O)c1ccc(Br)cc1` [bromfenac (low concentration), Bausch &amp]: the TEAD-luciferase reporter activity runs as follows: (compound concentration: 200 nM) inactive: -1.28; (compound concentration: 10 uM) inactive: -0.027.
As for `C[C@@H]1NC(=O)[C@H](CC(=O)O)NC1=O` [Aspartyl-alanyl-diketopiperazine], the TEAD-luciferase reporter activity was inactive: 0.0692 (compound concentration: 200 nM), inactive: -0.952 (compound concentration: 2 uM) and inactive: -0.0217 (compound concentration: 10 uM).
The like results for `Cc1cc(C(=O)NC2CC2)ccc1NC(=O)c1cnn(-c2ncccc2C(F)(F)F)c1C` were, in that order, inactive: 1.04, inactive: -0.981 and inactive: -0.182.
For the compound `CN(C)Cc1ccc(CSCCNC2=NS(=O)(=O)c3cscc32)o1`, the TEAD-luciferase reporter activity by setting is: (compound concentration: 200 nM) inactive: -0.907; (compound concentration: 2 uM) inactive: -0.168; (compound concentration: 10 uM) inactive: -1.1.
As to `O=C1c2ccccc2C(=O)c2c1ccc(O)c2O`, the TEAD-luciferase reporter activity reads like this: (compound concentration: 200 nM) inactive: 0.194; (compound concentration: 2 uM) inactive: 0.226; (compound concentration: 10 uM) inactive: -0.941.
Consider `Oc1ccc(Cl)cc1Sc1cc(Cl)ccc1O`, for which the TEAD-luciferase reporter activity reads like this: (compound concentration: 200 nM) inactive: -1.23; (compound concentration: 2 uM) inactive: -0.731; (compound concentration: 10 uM) inactive: -0.56.
For `Cc1nc(C2CCCCC2)c(-c2ccc(S(N)(=O)=O)c(F)c2)o1`, the TEAD-luciferase reporter activity runs as follows: (compound concentration: 200 nM) inactive: -2.42; (compound concentration: 2 uM) inactive: 0.63; (compound concentration: 10 uM) inactive: 2.75.
For `CC(C)N1CCN(c2ccc(N3CCN(c4ccc(OC[C@H]5OC[C@](Cn6cncn6)(c6ccc(F)cc6F)O5)cc4)CC3)cc2)C1=O`, the TEAD-luciferase reporter activity (compound concentration: 200 nM) was inactive: -1.36, the TEAD-luciferase reporter activity (compound concentration: 2 uM) was inactive: 1.93 and the TEAD-luciferase reporter activity (compound concentration: 10 uM) is inactive: 1.13.
As for `Cc1cccc(Nc2ccc([N+](=O)[O-])cc2S(=O)(=O)NC(=O)NC(C)C)c1`, the TEAD-luciferase reporter activity is inactive: -0.82 (compound concentration: 200 nM), inactive: -1.44 (compound concentration: 2 uM) and inactive: -0.106 (compound concentration: 10 uM).
`NCc1ccccc1Sc1ccccc1CO` [bipenamol]: the TEAD-luciferase reporter activity reads like this: (compound concentration: 200 nM) inactive: -0.696; (compound concentration: 2 uM) inactive: 1.89; (compound concentration: 10 uM) inactive: 0.706.
As to `O=C(NCCN1CCN(c2ncccn2)CC1)C12CC3CC(CC(C3)C1)C2` [Adatanserin hydrochloride], the TEAD-luciferase reporter activity reads like this: (compound concentration: 200 nM) inactive: -0.0342; (compound concentration: 2 uM) inactive: -1.74; (compound concentration: 10 uM) inactive: -1.05.
With `Cc1cc(-n2cccc2)c(S(C)(=O)=O)cc1C(=O)N=C(N)N` [Eniporide mesilate], the TEAD-luciferase reporter activity runs as follows: (compound concentration: 200 nM) inactive: -0.101; (compound concentration: 2 uM) inactive: -0.912; (compound concentration: 10 uM) inactive: -1.67.
For `N[C@H](C(=O)O)c1ccc(CO)c(O)c1` [Forfenimex], in that order: inactive: 0.105, inactive: 0.926 and inactive: 0.512.
For `CC[C@@H](C)C[C@@H](C)CCCCCCCCC(=O)N[C@H]1C[C@@H](O)[C@@H](NCCN)NC(=O)[C@@H]2[C@@H](O)CCN2C(=O)[C@H]([C@H](O)CCN)NC(=O)[C@H]([C@H](O)[C@@H](O)c2ccc(O)cc2)NC(=O)[C@@H]2C[C@@H](O)CN2C(=O)[C@H]([C@@H](C)O)NC1=O` [caspofungin acetate], in that order: inactive: -1.02, inactive: -1.57 and inactive: -0.853.
For the compound `Nc1nc(N)c(-c2cccc(Cl)c2Cl)c(CF)n1`, the TEAD-luciferase reporter activity is inactive: -0.773 (compound concentration: 200 nM), inactive: -0.9 (compound concentration: 2 uM) and inactive: -1.66 (compound concentration: 10 uM).
As for `COc1cccc(CC(=O)N2CCN(C(=O)c3ccc(Cl)cc3)CC2)c1`, the TEAD-luciferase reporter activity reads like this: (compound concentration: 200 nM) inactive: -0.149; (compound concentration: 2 uM) inactive: -0.392; (compound concentration: 10 uM) inactive: 0.162.
For the compound `O=C1c2ccccc2-c2c1c1ccccc1c(=O)n2CCNCCO` [oracin], the TEAD-luciferase reporter activity by setting is: (compound concentration: 200 nM) inactive: 1.06; (compound concentration: 2 uM) inactive: 0.352; (compound concentration: 10 uM) inactive: -0.916.
With `O=C(O)[C@@H]1C[C@@H](C2CCCCC2)CN1C(=O)CP(=O)(O)CCCCc1ccccc1` [Fosinoprilat], the TEAD-luciferase reporter activity by setting is: (compound concentration: 200 nM) inactive: -2.71; (compound concentration: 2 uM) inactive: -0.183; (compound concentration: 10 uM) inactive: 2.4.
Take `COc1cc2c(cc1N1C[C@@H](C)N[C@@H](C)C1)N(C(=O)c1ccc(-c3ccc(-c4noc(C)n4)cc3C)cc1)CC2`: the TEAD-luciferase reporter activity runs as follows: (compound concentration: 200 nM) inactive: 1.69; (compound concentration: 2 uM) inactive: -0.463; (compound concentration: 10 uM) inactive: 3.32.
As for `CCOC(=O)[C@H](CC(C)C)N(C)S(=O)(=O)c1ccc(Cn2c(C)nc3cnccc32)cc1` [Lexipafant], the TEAD-luciferase reporter activity (compound concentration: 200 nM) is inactive: 0.261 and the TEAD-luciferase reporter activity (compound concentration: 10 uM) is inactive: 0.481.
On to `CCn1c(=O)c(N(C)C)nc2ccccc21`, for which the TEAD-luciferase reporter activity is, setting by setting: (compound concentration: 200 nM) inactive: -0.0445; (compound concentration: 2 uM) inactive: 0.837; (compound concentration: 10 uM) inactive: 0.25.
For the compound `CC[C@H](C)[C@@H]1C(=O)N[C@H](C2Cc3ccccc3C2)C(=O)N1[C@@H](C(=O)N1CCOCC1)c1coc(C)n1` [retosiban], the TEAD-luciferase reporter activity (compound concentration: 200 nM) is inactive: -0.464, the TEAD-luciferase reporter activity (compound concentration: 2 uM) was inactive: 2.82 and the TEAD-luciferase reporter activity (compound concentration: 10 uM) was inactive: -0.99.
Take `CCC[C@H](C)Oc1nc(N)c2[nH]c(=O)n(CCCCCN3CCCCC3)c2n1`: the TEAD-luciferase reporter activity runs as follows: (compound concentration: 200 nM) inactive: 1.74; (compound concentration: 2 uM) inactive: -1.33; (compound concentration: 10 uM) inactive: -0.266.
The like results for `c1ccc(Cn2c(N3CCNCC3)nc3ccccc32)cc1` [Lerisetron] were, in that order, inactive: -0.814, inactive: -0.168 and inactive: 0.333.
